PubChem BioAssay AID1259425, University of Nebraska Medical Center | 2018
The whole screen tested about 14,000 reagents; shown is an unselected part. Further read-outs or replicates are left out here. The record does not give: the time to read-out.

Aim: 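Seek colon cancer weak points whose silencing resembles KSR1 loss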 (primary screen)
Cells: HCT116 human colon cancer cells
Reagents: siRNA pool against human genes, 50 nM siRNA
Detection: 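After 50 nM siRNA pool, branched-DNA assay measures six marker transcripts per well, minus blank, normalised to the geometric mean of two housekeeping transcripts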
Direction: BNIP3L mRNA: higher = more BNIP3L transcript after knockdown; NDRG1 mRNA: higher = more NDRG1 transcript after knockdown; BNIP3 mRNA: higher = more BNIP3 transcript after knockdown; ALDOC mRNA: higher = more ALDOC transcript after knockdown

gene | BNIP3L mRNA, set 1 | NDRG1 mRNA, set 1 | BNIP3 mRNA, set 1 | ALDOC mRNA, set 1
FNBP4 | 0.158 | 0.726 | 0.556 | 0.0385
PLA2G5 | 0.0726 | 0.0355 | 0.127 | 0.0181
DGLUCY | 0.0923 | 0.201 | 0.385 | 0.0289
B3GNT4 | 0.108 | 0.213 | 0.332 | 0.0229
HDAC1 | 0.0754 | 0.465 | 0.201 | 0.0218
CAPS2 | 0.159 | 0.462 | 0.293 | 0.0489
F5 | 0.075 | 0.106 | 0.395 | 0.0143
CLSTN1 | 0.0639 | 0.369 | 0.228 | 0.0347
ATXN7L3 | 0.272 | 0.337 | 0.329 | 0.0704
DNMT1 | 0.209 | 0.264 | 0.291 | 0.023
BATF | 0.0917 | 0.0921 | 0.36 | -0.0034
ATP5MF | 0.145 | 0.123 | 0.299 | 0.0258
NLRP12 | 0.0544 | 0.0692 | 0.209 | 0.000905
TBC1D9B | 0.146 | 0.323 | 0.336 | 0.0637
CNTN6 | 0.13 | 0.106 | 0.323 | 0.061
CORO2B | 0.0821 | 0.109 | 0.309 | 0.0111
DSC1 | 0.127 | 0.0767 | 0.17 | 0.022
COG4 | 0.0702 | 0.0849 | 0.252 | 0.0273
GLI3 | 0.0745 | 0.131 | 0.261 | 0.0112
MBD2 | 0.153 | 0.118 | 0.196 | 0.0145
